In PubChem BioAssay AID540256 (National Center for Advancing Translational Sciences (NCATS), 2011):
Screen size: about 300,000 compounds; about 3,700 (1.2%) were called active. Inconclusive means that the source gave no clear call. Such entries were picked first, then a sample of the others. Calls follow the shape of the full dose curve; tested in HEK293 cells. Potencies of inconclusive entries are doubtful fits and often do not repeat.
Potency is read from the fitted curve at half-maximal effect.

Test: qHTS for Inhibitors of binding or entry into cells for Lassa Virus; also: nearly all actives have a fitted effect of over 50% in size
Conditions: Lassa virus pseudotype entry inhibition, cell reporter; series mostly up to 37.9 µM
In the case of `CCc1cc2cccc(C)c2nc1SCC(=O)Nc1cc(C)on1`, the Potency was inconclusive: 35.5 µM [inhibitor, single point].
For `COc1ccc(OCC(=O)NC(=S)N2CCCc3ccccc32)cc1`, the Potency was inconclusive: 22.4 µM [inhibitor, single point].
In the case of `CCn1c(SCC(=O)N2CCCCCC2)nc2ccccc2c1=O`, the Potency was inconclusive: 35.5 µM [inhibitor, single point].
For `CC(/C=C1\N=C(SCc2ccccc2)SC1=O)=C\c1ccccc1`, the Potency was “inactive”.
For `COc1ccc(O)c(/C=N/NC(=O)c2ccc(CSc3nc(C)cc(C)n3)cc2)c1`, the Potency was inconclusive: 5.62 µM [inhibitor, full curve, poor fit].
For `CC(C)CCn1c(=O)c2sccc2n2c(CCCC(=O)NC(C)C)nnc12`, the Potency was “inactive”.
With `COc1cc(S(=O)(=O)N2CCOCC2)ccc1NC(=O)COC(=O)CC12CC3CC(CC(C3)C1)C2` the Potency was active: 16.4 µM.
For `CCCc1cc(=O)n2c(nc3ccccc32)[nH]1`, the Potency was “inactive”.
With `CC(=O)c1ccc(Nc2cc(C)nc3c(C)cc(C)cc23)cc1` the Potency was inconclusive: 10.3 µM [inhibitor, partial curve, poor fit].
In the case of `COc1ccc(C(=O)O)cc1NC(=S)NC(=O)C(c1ccccc1)c1ccccc1`, the Potency was “inactive”.
In the case of `N#CC1=C(N)Oc2cc(N)ccc2C1c1cccnc1` (configuration not stated), the Potency was “inactive”.
For `COc1ccc2c3c(cccc13)C(=O)N(O)C2=O`, the Potency was “inactive”.
For `COc1ccccc1C(=O)c1c(C)c(CCC#N)n2ccccc12`, the Potency was “inactive”.
For `NS(=O)(=O)c1ccc(NN=C2CCN(Cc3ccccc3)CC2)c([N+](=O)[O-])c1`, the Potency was inconclusive: 1.26 µM [inhibitor, single point].
For `CC(=O)N1CCN(c2ccccc2NC(=O)COc2ccc(Br)cc2)CC1`, the Potency was “inactive”.
In the case of `CN1CCN(C2Cc3cc(Cl)ccc3Sc3cc(F)ccc32)CC1` (configuration not stated), the Potency was inconclusive: 35.5 µM [inhibitor, single point].
In the case of `CC(=O)OCC(=O)Nc1ccc(N=Nc2ccccc2)cc1`, the Potency was inconclusive: 0.891 µM [activator, single point].
For `CC(NC(=O)c1ccccc1NC(=O)CN1CCc2ccccc2C1)c1ccccc1` (configuration not stated), the Potency was inconclusive: 22.4 µM [inhibitor, partial curve, poor fit].
With `Cc1nc2c(C(=O)NCCc3ccc(Cl)cc3)c[nH]n2c(=O)c1Cc1ccc(Cl)cc1` the Potency was “inactive”.
For `COc1cccc(C(=O)NCCS(=O)(=O)NCCc2ccc(OC)c(OC)c2)c1`, the Potency was inconclusive: 5.62 µM [inhibitor, single point].
With `COc1ccccc1C(=O)Nc1c(C(=O)N(C)Cc2ccccc2)sc2nc(C)c(Cl)c(C)c12` the Potency was inconclusive: 7.94 µM [inhibitor, partial curve].
For `COc1ccccc1NC(=O)c1ccc(-n2ccnc2)c([N+](=O)[O-])c1`, the Potency was inconclusive: 1.26 µM [inhibitor, single point].
In the case of `O=C(CSc1nnc(-c2ccc(O)cc2)o1)c1ccc(Br)cc1`, the Potency was “inactive”.
For `O=C1NC2C(=CC(O)C(O)C2O)c2cc3c(c(O)c21)OCO3` (configuration not stated), the Potency was inconclusive: 0.1 µM [inhibitor, full curve, poor fit].
In the case of `COc1ccc(S(=O)(=O)N2CCN(CC(=O)NC3CC3)CC2)cc1`, the Potency was “inactive”.
In the case of `COc1cccc(/C=N/Nc2nc3ccccc3n3cnnc23)c1`, the Potency was “inactive”.
For `COC(=O)c1cc(NC(=O)CC2SC(=Nc3ccccc3)N(CCc3c[nH]c4ccccc34)C2=O)cc(C(=O)OC)c1` (configuration not stated), the Potency was inconclusive: 13 µM [inhibitor, partial curve, poor fit].
For `CC1CN(Cc2csc(-c3ccc(Cl)cc3)n2)CC(C)O1` (configuration not stated), the Potency was “inactive”.
In the case of `CC(=O)c1ccc(NC(=O)CSc2ccc3nnc(-c4cccnc4)n3n2)cc1`, the Potency was “inactive”.
In the case of `O=C(NCc1ccccc1Cl)C1CCCN(C(=O)c2cnn(-c3ccccc3)c2-n2cccc2)C1` (configuration not stated), the Potency was “inactive”.
In the case of `CC(C)(Oc1ccc(Cl)cc1)C(=O)N1CCN(c2ccccn2)CC1`, the Potency was inconclusive: 11.2 µM [inhibitor, partial curve, poor fit].
With `COc1ccc(C(=O)NCc2ccccc2CN2CCCC2)cc1S(=O)(=O)N1CCOCC1` the Potency was “inactive”.
With `CCCCOc1ccc(CN2C(=O)C(=O)c3cc(Br)cc(C)c32)cc1OC` the Potency was inconclusive: 10 µM [inhibitor, partial curve, poor fit].
In the case of `Cc1ccccc1NC(=O)C[n+]1cc(-c2ccccc2)n2c1CCC2`, the Potency was inconclusive: 3.98 µM [inhibitor, single point].
With `CCOc1ccccc1CNC(=O)C1CCCN(c2ncnc3onc(-c4ccc(F)cc4)c23)C1` (configuration not stated) the Potency was “inactive”.
In the case of `O=C(c1ccc2c(c1)OCO2)N1CCN(c2cccc(C(F)(F)F)c2)CC1`, the Potency was inconclusive: 0.794 µM [inhibitor, full curve, poor fit].
With `Cc1ccc(Cl)cc1S(=O)(=O)N1CCC(C(=O)NC2CCN(Cc3ccccc3)CC2)CC1` the Potency was “inactive”.
In the case of `COc1cc(CN2CCN(C(=O)CC(C)C)CC2)cc(OC)c1O`, the Potency was “inactive”.
For `CCC(CC)COC(=O)C(C#N)c1nc2ccccc2nc1N1CCN(CC)CC1` (configuration not stated), the Potency was inconclusive: 29.1 µM [inhibitor, single point].
With `CCc1cc2c3c(c1)C1(C(=O)N3C(C)(C)C=C2C)C(C#N)=C(N)Oc2[nH]c(=O)[nH]c(=O)c21` (configuration not stated) the Potency was inconclusive: 15.8 µM [inhibitor, partial curve, poor fit].
With `COc1ccc(C)cc1NC(=O)NNC(=O)c1ccoc1C` the Potency was “inactive”.
For `Cc1ccc(S(=O)(=O)N(C)c2ccccc2C(=O)NC2CCCC2)cc1`, the Potency was inconclusive: 0.501 µM [inhibitor, single point].
For `O=C1CC(Nc2ccccc2)C(=O)N1CCc1ccccc1` (configuration not stated), the Potency was inconclusive: 16.4 µM [activator, partial curve, poor fit].
For `Cc1cc(C(=O)OCC(=O)N2CCc3ccccc32)c(C)o1`, the Potency was inconclusive: 11.2 µM [activator, partial curve].
In the case of `N#Cc1cnc(SCCc2ccccc2)nc1N`, the Potency was “inactive”.
With `CCc1ccccc1NC(=O)CNC(=O)c1cccc(S(=O)(=O)N2CCN(Cc3ccccc3)CC2)c1` the Potency was “inactive”.
With `O=C(Nc1ccc(F)cc1F)c1ccc(-n2cccn2)c([N+](=O)[O-])c1` the Potency was “inactive”.
